The target of this data set is hsYY1 (Homo sapiens (293T cells)) (UniProt P25490). The data set is described as follows: EMSA supershift. The following applies: hsYY1 mAb; EMSA: LightShift kit, 20 uL, 500 ng-5 ug bbYY1 or 2-3 uL nuclear extract, 8% native TBE gel; protein in an extract.

Protein sequences, listed by entry. Tags and fused reporters are not part of them.
UniProt P25490, whole entry: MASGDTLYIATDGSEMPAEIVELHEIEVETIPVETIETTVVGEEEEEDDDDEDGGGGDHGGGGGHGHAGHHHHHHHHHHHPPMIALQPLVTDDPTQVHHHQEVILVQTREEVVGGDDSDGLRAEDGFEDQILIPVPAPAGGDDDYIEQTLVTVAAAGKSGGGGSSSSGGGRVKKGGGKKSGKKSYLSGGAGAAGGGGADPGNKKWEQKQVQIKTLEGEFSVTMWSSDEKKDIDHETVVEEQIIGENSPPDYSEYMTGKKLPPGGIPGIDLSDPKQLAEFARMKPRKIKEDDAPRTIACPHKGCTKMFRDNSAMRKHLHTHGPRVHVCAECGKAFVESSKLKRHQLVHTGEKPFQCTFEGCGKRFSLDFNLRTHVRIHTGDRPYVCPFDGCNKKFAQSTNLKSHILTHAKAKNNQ

This is an account of results in paper PMC7481187.

The exact form of at least one protein or probe is not confirmed. At least one result comes from cells or an extract, where the contact may be indirect. At least one verdict rests on a figure or table, not on a statement of the authors.

As to “ATTGCGCGTCGCGCGAAAATTCAAGATGGCGACCAGACACTGC (double strand) [Oligomer 3]”, the binding result is “binds”. Regarding “CAAGATGGCCGCCGACCTTATGCACA (double strand) [Oligomer 1]”, the binding result was “binds”.
